The values that follow come from the supplement of paper PMC10060354, “Discovery of a small molecule ligand of FRS2 that inhibits invasion and tumor growth” (Cellular Oncology, 2022).

Amino acid sequences for entries named in this document (tags omitted). A change or cut given only in a name is not applied to a line headed by its entry.
UniProt A6NKD9: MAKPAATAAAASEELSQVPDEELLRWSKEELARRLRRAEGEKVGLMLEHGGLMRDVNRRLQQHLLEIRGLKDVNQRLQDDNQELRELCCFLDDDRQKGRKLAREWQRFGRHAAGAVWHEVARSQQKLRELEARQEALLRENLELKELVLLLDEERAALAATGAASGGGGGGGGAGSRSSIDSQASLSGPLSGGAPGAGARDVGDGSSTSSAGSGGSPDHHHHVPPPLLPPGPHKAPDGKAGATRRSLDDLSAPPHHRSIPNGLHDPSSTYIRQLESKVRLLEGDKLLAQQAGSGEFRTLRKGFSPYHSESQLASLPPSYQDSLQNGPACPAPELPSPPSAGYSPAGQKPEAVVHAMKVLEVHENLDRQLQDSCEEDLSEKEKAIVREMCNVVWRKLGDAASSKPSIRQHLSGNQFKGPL
UniProt P23921: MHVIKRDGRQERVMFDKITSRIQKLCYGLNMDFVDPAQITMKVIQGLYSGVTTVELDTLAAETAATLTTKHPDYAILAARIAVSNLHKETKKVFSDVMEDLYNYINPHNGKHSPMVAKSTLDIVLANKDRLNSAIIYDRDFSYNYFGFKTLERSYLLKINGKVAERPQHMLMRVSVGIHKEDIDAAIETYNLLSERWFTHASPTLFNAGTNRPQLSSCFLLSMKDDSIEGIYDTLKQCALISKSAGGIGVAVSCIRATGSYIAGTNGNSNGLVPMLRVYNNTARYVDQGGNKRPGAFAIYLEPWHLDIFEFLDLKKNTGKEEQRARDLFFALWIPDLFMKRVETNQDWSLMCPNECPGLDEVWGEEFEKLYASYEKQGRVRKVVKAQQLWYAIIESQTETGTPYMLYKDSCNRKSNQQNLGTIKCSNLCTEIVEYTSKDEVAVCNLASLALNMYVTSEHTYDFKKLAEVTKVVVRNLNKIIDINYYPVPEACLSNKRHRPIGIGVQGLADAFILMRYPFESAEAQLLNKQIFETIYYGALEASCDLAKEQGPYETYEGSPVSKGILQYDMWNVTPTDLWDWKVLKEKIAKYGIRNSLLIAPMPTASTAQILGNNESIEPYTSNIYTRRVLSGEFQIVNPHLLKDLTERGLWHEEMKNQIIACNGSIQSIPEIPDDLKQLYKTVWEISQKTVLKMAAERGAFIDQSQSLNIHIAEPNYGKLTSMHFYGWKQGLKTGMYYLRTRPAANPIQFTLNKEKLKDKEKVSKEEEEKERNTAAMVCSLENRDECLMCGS
UniProt Q8N3R9: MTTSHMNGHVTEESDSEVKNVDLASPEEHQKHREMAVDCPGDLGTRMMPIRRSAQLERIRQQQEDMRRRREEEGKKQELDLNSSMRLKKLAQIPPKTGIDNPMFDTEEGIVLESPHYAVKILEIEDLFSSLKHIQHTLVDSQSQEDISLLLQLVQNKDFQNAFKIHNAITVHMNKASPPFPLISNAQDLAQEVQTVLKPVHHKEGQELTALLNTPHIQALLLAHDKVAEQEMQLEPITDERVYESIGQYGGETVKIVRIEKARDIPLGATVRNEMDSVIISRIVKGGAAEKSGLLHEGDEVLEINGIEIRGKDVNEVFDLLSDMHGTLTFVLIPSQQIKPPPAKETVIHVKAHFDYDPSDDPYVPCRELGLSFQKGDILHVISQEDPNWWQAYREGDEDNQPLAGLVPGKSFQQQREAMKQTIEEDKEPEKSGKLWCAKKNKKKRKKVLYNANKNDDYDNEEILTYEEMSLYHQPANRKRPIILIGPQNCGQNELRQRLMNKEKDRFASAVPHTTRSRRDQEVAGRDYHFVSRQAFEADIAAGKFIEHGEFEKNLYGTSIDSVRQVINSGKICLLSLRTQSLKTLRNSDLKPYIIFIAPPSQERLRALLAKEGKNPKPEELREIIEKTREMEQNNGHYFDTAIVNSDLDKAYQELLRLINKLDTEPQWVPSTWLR
UniProt O14880: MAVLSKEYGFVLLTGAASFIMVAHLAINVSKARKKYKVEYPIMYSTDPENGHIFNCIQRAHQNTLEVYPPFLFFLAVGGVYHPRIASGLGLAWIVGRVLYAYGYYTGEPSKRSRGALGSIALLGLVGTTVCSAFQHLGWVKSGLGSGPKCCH
UniProt Q5HYJ3: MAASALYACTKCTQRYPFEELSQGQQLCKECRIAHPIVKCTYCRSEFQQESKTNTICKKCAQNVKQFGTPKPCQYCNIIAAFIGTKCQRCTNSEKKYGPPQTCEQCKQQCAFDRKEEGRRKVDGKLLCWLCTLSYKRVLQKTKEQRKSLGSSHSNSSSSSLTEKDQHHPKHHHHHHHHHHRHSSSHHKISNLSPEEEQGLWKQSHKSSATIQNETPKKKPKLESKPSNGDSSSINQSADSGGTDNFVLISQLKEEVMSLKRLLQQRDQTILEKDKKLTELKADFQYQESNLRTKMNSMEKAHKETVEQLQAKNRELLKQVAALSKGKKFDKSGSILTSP
UniProt Q86SI9: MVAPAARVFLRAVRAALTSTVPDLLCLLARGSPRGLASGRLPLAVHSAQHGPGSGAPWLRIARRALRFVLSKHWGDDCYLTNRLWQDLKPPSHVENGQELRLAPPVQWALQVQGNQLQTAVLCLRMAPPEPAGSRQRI
UniProt P14854, whole entry: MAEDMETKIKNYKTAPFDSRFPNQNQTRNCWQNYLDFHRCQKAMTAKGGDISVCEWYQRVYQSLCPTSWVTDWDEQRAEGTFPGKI
UniProt Q969V3: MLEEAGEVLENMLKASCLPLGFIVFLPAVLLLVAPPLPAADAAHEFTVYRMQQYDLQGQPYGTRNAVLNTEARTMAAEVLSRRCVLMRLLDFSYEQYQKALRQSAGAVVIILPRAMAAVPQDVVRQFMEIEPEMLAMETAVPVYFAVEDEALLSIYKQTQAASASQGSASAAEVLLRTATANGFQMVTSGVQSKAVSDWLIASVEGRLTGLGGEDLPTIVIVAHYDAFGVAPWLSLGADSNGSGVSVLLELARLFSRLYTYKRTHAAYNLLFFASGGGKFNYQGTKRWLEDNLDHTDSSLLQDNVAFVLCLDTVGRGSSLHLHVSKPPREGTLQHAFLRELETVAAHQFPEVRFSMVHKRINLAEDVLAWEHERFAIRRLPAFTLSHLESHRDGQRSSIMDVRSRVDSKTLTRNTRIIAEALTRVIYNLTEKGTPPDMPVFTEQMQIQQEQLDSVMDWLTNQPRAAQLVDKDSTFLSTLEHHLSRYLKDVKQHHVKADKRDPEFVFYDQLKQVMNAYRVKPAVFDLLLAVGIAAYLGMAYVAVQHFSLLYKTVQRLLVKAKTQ
UniProt O43427: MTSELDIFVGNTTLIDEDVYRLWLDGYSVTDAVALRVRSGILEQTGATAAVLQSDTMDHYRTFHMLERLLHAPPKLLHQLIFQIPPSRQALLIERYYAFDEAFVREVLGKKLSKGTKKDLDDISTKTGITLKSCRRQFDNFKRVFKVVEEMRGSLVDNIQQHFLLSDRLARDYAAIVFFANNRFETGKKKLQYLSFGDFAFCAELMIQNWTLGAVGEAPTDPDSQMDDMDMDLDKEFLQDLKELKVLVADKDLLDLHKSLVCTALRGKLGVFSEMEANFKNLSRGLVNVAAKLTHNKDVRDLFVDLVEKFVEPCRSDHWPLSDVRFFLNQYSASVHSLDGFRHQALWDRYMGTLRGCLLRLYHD
UniProt Q9BRP4: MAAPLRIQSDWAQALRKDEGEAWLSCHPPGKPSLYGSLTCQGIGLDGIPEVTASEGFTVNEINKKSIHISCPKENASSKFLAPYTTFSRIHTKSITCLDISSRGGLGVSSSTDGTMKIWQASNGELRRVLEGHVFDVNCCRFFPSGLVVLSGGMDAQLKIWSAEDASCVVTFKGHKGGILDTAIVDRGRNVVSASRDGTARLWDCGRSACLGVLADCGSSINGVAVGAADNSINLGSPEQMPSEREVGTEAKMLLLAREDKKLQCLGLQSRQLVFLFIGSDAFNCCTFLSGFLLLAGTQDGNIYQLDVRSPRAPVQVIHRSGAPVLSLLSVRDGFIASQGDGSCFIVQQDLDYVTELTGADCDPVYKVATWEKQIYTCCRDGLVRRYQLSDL
UniProt P49407: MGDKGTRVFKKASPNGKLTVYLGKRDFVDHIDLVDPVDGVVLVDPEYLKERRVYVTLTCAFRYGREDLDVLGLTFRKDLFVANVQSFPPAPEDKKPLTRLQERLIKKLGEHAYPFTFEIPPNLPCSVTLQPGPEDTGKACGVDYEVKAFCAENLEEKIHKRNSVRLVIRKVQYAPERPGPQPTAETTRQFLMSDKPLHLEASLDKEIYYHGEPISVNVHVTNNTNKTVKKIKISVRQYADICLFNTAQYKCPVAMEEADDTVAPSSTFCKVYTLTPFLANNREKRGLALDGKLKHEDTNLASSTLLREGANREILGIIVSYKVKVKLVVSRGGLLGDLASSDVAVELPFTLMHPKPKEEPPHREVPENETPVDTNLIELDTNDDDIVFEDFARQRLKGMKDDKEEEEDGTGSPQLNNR
UniProt P51648: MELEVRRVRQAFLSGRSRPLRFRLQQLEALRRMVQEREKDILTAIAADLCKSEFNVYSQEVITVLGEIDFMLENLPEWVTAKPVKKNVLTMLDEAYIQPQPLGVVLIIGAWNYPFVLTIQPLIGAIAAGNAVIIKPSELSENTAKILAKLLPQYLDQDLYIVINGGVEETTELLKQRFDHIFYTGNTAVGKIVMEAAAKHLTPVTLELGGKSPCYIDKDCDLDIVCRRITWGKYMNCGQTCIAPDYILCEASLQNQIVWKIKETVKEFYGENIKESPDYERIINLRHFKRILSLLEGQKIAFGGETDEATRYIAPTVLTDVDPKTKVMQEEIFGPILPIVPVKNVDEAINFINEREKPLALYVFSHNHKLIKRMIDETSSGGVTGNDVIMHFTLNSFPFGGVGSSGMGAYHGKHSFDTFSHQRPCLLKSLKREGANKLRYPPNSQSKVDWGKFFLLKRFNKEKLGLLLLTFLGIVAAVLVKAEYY
UniProt Q13490, whole entry: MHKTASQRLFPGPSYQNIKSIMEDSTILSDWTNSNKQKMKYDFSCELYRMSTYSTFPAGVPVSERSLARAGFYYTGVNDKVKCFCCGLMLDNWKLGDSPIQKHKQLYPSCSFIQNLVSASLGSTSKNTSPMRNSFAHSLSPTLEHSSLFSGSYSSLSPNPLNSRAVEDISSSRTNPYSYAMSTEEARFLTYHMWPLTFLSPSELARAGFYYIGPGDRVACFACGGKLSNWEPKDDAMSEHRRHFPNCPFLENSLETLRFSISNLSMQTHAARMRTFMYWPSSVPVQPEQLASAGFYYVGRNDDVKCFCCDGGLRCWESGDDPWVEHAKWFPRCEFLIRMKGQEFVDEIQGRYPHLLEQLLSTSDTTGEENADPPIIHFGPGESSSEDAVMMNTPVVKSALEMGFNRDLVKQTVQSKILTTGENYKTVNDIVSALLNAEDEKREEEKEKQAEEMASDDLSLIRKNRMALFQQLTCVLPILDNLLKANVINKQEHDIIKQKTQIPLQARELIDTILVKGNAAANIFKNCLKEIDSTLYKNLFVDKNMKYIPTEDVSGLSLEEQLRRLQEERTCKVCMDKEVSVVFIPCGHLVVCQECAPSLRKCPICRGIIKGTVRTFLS
UniProt P18031: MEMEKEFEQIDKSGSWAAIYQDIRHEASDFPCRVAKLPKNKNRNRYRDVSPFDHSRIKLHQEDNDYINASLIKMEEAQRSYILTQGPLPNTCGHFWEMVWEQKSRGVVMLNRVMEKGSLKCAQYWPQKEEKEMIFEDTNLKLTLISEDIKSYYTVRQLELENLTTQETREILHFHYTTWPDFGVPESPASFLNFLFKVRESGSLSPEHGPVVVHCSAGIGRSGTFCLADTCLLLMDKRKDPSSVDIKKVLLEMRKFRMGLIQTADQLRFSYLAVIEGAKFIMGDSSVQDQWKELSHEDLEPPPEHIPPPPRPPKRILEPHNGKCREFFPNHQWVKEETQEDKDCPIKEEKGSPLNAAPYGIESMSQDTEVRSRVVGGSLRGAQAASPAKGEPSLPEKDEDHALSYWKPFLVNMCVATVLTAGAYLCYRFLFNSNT
UniProt Q7Z417: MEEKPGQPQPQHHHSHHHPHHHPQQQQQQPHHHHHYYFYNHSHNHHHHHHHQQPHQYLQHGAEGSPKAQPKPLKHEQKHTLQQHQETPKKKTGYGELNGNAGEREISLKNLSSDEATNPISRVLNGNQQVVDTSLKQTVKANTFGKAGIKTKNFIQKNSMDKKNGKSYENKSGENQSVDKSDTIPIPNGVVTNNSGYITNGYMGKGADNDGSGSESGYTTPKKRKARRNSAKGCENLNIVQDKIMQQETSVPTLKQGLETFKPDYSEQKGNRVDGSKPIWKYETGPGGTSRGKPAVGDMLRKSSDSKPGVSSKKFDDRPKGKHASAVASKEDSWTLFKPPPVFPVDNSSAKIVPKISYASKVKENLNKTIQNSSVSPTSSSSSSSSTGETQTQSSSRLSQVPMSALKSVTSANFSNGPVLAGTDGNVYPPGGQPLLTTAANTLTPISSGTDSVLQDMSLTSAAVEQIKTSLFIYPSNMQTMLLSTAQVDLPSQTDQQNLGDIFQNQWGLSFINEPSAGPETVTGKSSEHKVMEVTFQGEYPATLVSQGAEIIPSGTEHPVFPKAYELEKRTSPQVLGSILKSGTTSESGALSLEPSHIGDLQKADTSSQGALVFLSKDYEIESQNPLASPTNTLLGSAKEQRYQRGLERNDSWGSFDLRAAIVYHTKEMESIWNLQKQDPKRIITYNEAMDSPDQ

Compound in the assay: [O-][N+](C(C1=C(C(O)=C2)NC(C(C=C3)=CC=C3Cl)C4C1C=CC4)=C2Cl)=O
In words: melting temperature shift (compound 7 minus DMSO); higher = compound stabilises the protein. The conditions noted are these: 10 µM. On the procedure: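 Thermal proteome profiling (TMT mass spectrometry) in intact DAOY medulloblastoma cells or DAOY lysates treated with 10 µM compound 7 or DMSO, heated at 10 temperatures from 40.5 to 73.8 °C for 3 min. Melting curves were fitted with the Bioconductor TPP package, and the melting point difference between compound and vehicle is reported per protein (single curve per condition).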

[1] abbreviates: system: DAOY cell lysate, treatment time: 20 min, 4 °C.
[2] abbreviates: system: intact DAOY cells, treatment time: 90 min, 37 °C.

Repeats are few or missing, and single values can be far off.

CGGBP1 (UniProt Q9UFW8): the melting temperature shift is, setting by setting: under setting [1], 0.29 °C; under setting [2], -2.88 °C.

As to ASMTL (UniProt O95671), the melting temperature shift under setting [1] was -1.47 °C.

As for NHP2 (UniProt Q9NX24), the melting temperature shift is 2.41 °C under setting [1] and 0.321 °C under setting [2].

In the case of IPO13 (UniProt O94829), the melting temperature shift under setting [1] worked out at 1.09 °C.

As to UniProt Q9P2H0, the melting temperature shift under setting [2] came to 0.595 °C.

Regarding UniProt Q9Y2U5, the melting temperature shift under setting [1] is -1.22 °C and the melting temperature shift under setting [2] is -0.711 °C.

Regarding VPS16 (UniProt Q9H269), the melting temperature shift by setting is: under setting [1], -0.727 °C; under setting [2], 0.249 °C.

For the target STAT5B (UniProt P51692), the melting temperature shift is -0.735 °C under setting [1] and -0.754 °C under setting [2].

For the target PHPT1 (UniProt Q9NRX4), the melting temperature shift by setting is: under setting [1], -0.929 °C; under setting [2], -0.335 °C.

For the target CCDC85C (UniProt A6NKD9), the melting temperature shift is, setting by setting: under setting [1], -2.94 °C; under setting [2], 1.08 °C.

As to EPB41L2 (UniProt O43491), the melting temperature shift is, setting by setting: under setting [1], 0.918 °C; under setting [2], -0.263 °C.

As to RRM1 (UniProt P23921), the melting temperature shift is, setting by setting: under setting [1], -0.454 °C; under setting [2], -0.622 °C.

In the case of UniProt Q5XX13, the melting temperature shift under setting [2] worked out at 7.23 °C.

Consider EMC4 (UniProt Q5J8M3), for which the melting temperature shift is, setting by setting: under setting [1], 0.359 °C; under setting [2], -0.842 °C.

Consider PGM2 (UniProt Q96G03), for which the melting temperature shift under setting [1] is -0.425 °C and the melting temperature shift under setting [2] was -0.227 °C.

With KPNA6 (UniProt O60684), the melting temperature shift is -1.1 °C under setting [1] and -1.5 °C under setting [2].

As to UniProt Q9H4P4, under setting [1], the melting temperature shift stood at 0.775 °C.

For MPP5 (UniProt Q8N3R9), the melting temperature shift is, setting by setting: under setting [1], -1.39 °C; under setting [2], 0.121 °C.

In the case of UniProt Q8IUE6, under setting [2], the melting temperature shift is 0.17 °C.

As to UniProt P02462, the melting temperature shift amounted to 1.51 °C under setting [1] and 0.581 °C under setting [2].

MGST3 (UniProt O14880): the melting temperature shift worked out at 2.62 °C under setting [1] and 6.52 °C under setting [2].

Take P0DPH8 (UniProt P0DPH7): the melting temperature shift is 0.335 °C under setting [1] and -0.765 °C under setting [2].

Regarding UniProt P46734, the melting temperature shift reads like this: under setting [1], -0.38 °C; under setting [2], -1.54 °C.

Regarding UniProt Q5HYJ3, the melting temperature shift under setting [1] is 0.637 °C.

As to DDR2 (UniProt Q16832), the melting temperature shift reads like this: under setting [1], -1.23 °C; under setting [2], 0.0672 °C.

VPS72 (UniProt Q15906): the melting temperature shift is -0.271 °C under setting [1] and 2.27 °C under setting [2].

Consider UniProt Q86SI9, for which, under setting [2], the melting temperature shift was -0.564 °C.

Turning to COX6B1 (UniProt P14854), the melting temperature shift by setting is: under setting [1], 0.00361 °C; under setting [2], -1.46 °C.

For the target UniProt Q9Y6A9, the melting temperature shift under setting [1] is 3.68 °C.

In the case of UniProt Q9NWY4, the melting temperature shift under setting [1] turned out to be 0.844 °C.

As to NCLN (UniProt Q969V3), the melting temperature shift by setting is: under setting [1], 1.01 °C; under setting [2], -0.535 °C.

Take FIBP (UniProt O43427): the melting temperature shift runs as follows: under setting [1], -0.0657 °C; under setting [2], -1.25 °C.

For PAAF1 (UniProt Q9BRP4), the melting temperature shift is, setting by setting: under setting [1], -1.28 °C; under setting [2], 0.747 °C.

Take WDR3 (UniProt Q9UNX4): the melting temperature shift under setting [1] was 0.28 °C.

With UniProt Q96T23, the melting temperature shift is 1.79 °C under setting [1] and -0.138 °C under setting [2].

As for SLC7A1 (UniProt P30825), the melting temperature shift was 5.51 °C under setting [1] and -1.03 °C under setting [2].

On to UniProt O75145, for which the melting temperature shift under setting [2] was 0.00924 °C.

In the case of UniProt P28676, the melting temperature shift runs as follows: under setting [1], -0.276 °C; under setting [2], 0.528 °C.

In the case of ADAT3 (UniProt Q96EY9), under setting [1], the melting temperature shift came to 0.632 °C.

For VPS36 (UniProt Q86VN1), the melting temperature shift runs as follows: under setting [1], -0.52 °C; under setting [2], 0.31 °C.

Consider ARRB1 (UniProt P49407), for which the melting temperature shift by setting is: under setting [1], 2.15 °C; under setting [2], 1.99 °C.

With EXOSC7 (UniProt Q15024), the melting temperature shift under setting [1] came to 0.255 °C.

ALDH3A2 (UniProt P51648): the melting temperature shift is 0.637 °C under setting [1] and 2.21 °C under setting [2].

With BIRC2 (UniProt Q13490), the melting temperature shift was -0.663 °C under setting [1] and 0.465 °C under setting [2].

As to PTPN1 (UniProt P18031), the melting temperature shift under setting [1] came to 0.303 °C and the melting temperature shift under setting [2] is -0.97 °C.

As to GUK1 (UniProt Q16774), the melting temperature shift is 0.527 °C under setting [1] and -0.929 °C under setting [2].

Consider FBXW11 (UniProt Q9UKB1), for which the melting temperature shift is, setting by setting: under setting [1], -0.607 °C; under setting [2], -1.66 °C.

For the target UniProt Q9Y689, the melting temperature shift under setting [2] was -2.05 °C.

Turning to AHNAK (UniProt Q09666), the melting temperature shift under setting [1] stood at 0.928 °C.

For the target NDUFA6 (UniProt P56556), the melting temperature shift runs as follows: under setting [1], 0.973 °C; under setting [2], -1.3 °C.

Regarding UniProt Q659C4, under setting [2], the melting temperature shift is 1.42 °C.

Turning to POLE3 (UniProt Q9NRF9), the melting temperature shift runs as follows: under setting [1], 0.145 °C; under setting [2], -0.631 °C.

Regarding FLAD1 (UniProt Q8NFF5), the melting temperature shift is -0.46 °C under setting [1] and -1.43 °C under setting [2].

Consider PDRG1 (UniProt Q9NUG6), for which the melting temperature shift by setting is: under setting [1], -0.645 °C; under setting [2], -0.85 °C.

With ENG (UniProt P17813), the melting temperature shift was -0.691 °C under setting [1] and -0.284 °C under setting [2].

As for NCOA2 (UniProt Q15596), under setting [1], the melting temperature shift was determined as 2.21 °C.

Turning to NUFIP2 (UniProt Q7Z417), the melting temperature shift is -0.146 °C under setting [1] and 0.929 °C under setting [2].

Regarding DCUN1D1 (UniProt Q96GG9), the melting temperature shift reads like this: under setting [1], -0.53 °C; under setting [2], -0.374 °C.

With UniProt O76093, under setting [2], the melting temperature shift was -1.93 °C.

UniProt Q8WYP5: the melting temperature shift under setting [1] was 2.26 °C and the melting temperature shift under setting [2] came out at 0.878 °C.

Consider U2AF2 (UniProt P26368), for which the melting temperature shift is 0.866 °C under setting [1] and -0.812 °C under setting [2].

On to RPL14 (UniProt P50914), for which the melting temperature shift by setting is: under setting [1], 0.596 °C; under setting [2], -0.597 °C.

C11ORF98 (UniProt E9PRG8): under setting [1], the melting temperature shift worked out at 2.08 °C.

Consider UniProt Q9BZ95, for which the melting temperature shift was determined as 1.19 °C under setting [1] and 1.28 °C under setting [2].

On to INPP1 (UniProt P49441), for which the melting temperature shift runs as follows: under setting [1], 0.432 °C; under setting [2], -2.67 °C.

With POLD3 (UniProt Q15054), the melting temperature shift under setting [1] is -0.0315 °C and the melting temperature shift under setting [2] was -0.779 °C.

In the case of COX7B (UniProt P24311), the melting temperature shift is 0.812 °C under setting [1] and 1.57 °C under setting [2].

Consider UniProt Q8TE12, for which the melting temperature shift under setting [2] turned out to be 2.45 °C.
